Reference: doi:10.1101/2023.03.28.534377

Protein sequences, listed by entry. Tags and fused reporters are not part of them. Lines headed by an entry give the natural chain unless they say otherwise; changes in a name come on top.
UniProt A0QSV9: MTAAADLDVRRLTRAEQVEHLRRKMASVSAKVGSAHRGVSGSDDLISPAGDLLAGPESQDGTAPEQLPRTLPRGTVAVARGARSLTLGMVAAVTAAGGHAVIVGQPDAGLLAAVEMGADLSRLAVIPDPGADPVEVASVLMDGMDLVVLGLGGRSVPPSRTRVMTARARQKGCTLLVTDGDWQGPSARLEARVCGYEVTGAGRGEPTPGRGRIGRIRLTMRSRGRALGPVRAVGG
UniProt A0QSW0: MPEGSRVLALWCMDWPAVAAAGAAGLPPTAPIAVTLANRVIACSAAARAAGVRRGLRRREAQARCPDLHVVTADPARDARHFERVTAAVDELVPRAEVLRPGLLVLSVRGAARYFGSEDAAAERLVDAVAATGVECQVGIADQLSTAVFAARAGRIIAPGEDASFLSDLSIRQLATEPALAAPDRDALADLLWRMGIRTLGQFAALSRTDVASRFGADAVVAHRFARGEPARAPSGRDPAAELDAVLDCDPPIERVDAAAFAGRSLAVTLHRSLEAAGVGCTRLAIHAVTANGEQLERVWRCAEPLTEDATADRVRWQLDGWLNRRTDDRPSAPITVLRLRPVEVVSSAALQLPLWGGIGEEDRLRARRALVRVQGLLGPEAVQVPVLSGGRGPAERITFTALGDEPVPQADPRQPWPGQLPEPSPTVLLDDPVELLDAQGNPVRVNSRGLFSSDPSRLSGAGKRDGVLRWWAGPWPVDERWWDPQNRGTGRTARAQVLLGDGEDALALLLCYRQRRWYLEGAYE

Key:
[1] = molecular target: Strep-tagged ImuA’ (M. smegmatis) (M. smegmatis) (UniProt A0QSV9); assay: pull-down
[2] = molecular target: His-tagged ImuB, wild type (M. smegmatis) (M. smegmatis) (UniProt A0QSW0); assay: SEC
[3] = molecular target: His-tagged ImuB, wild type (M. smegmatis) (M. smegmatis) (UniProt A0QSW0); assay: pull-down

binding [1] | binding [2] | binding [3] | Substance
binds | – | – | His-tagged ImuB, wild type (M. smegmatis) (from UniProt A0QSW0)
– | binds | binds | Strep-tagged ImuA’ (M. smegmatis) (from UniProt A0QSV9)

These are yes or no findings as the source states them, for the method shown. Binding calls can cover weak binding; strength is not graded here. For part of these data: Binding seen in cells or lysates may run through a third protein.
